# From US7030162B2, “Treatment of migraine headache” (POZEN Inc., priority 1996, dated 2006)
# Test: clinical
# Settings: both, human, in vivo
smiles,measurement,value
COc1ccc2cc([C@H](C)C(=O)O)ccc2c1 [naproxen sodium],Tmax,1.2 h
